The list shows a part of the results.
How the values were obtained:
Test in all cases: log2 fold change, soluble protein after heating vs DMSO (PISA); higher = thermal stabilisation; K562 cells, 10 uM, 30 min; active = over 0.2 and 3.5 SD of the protein, either way, in both replicates (recomputed)
erlotinib = compound: C#Cc1cccc(Nc2ncnc3cc(OCCOC)c(OCCOC)cc23)c1 [erlotinib]
Outline: (§1)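 K562 cells at 2×10^6 cells/mL were treated with 10 μM compound for 30 min. Aliquots were heated for 3 min across 48°C-58°C, pooled, and extracted in PBS with 0.5% NP-40 at 4°C; soluble protein was the supernatant after 21,000xg for 90 min. Soluble protein was quantified by TMTpro 16plex LC-MS/MS with channel sums equalised, and reported as log2 fold change in thermal stability against DMSO controls, with values from duplicates.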

The chains behind the UniProt entries cited, without tags or fusion partners. Where a name states a change or a piece, a line headed by the entry shows the natural chain unless it says otherwise.
UniProt Q86X02: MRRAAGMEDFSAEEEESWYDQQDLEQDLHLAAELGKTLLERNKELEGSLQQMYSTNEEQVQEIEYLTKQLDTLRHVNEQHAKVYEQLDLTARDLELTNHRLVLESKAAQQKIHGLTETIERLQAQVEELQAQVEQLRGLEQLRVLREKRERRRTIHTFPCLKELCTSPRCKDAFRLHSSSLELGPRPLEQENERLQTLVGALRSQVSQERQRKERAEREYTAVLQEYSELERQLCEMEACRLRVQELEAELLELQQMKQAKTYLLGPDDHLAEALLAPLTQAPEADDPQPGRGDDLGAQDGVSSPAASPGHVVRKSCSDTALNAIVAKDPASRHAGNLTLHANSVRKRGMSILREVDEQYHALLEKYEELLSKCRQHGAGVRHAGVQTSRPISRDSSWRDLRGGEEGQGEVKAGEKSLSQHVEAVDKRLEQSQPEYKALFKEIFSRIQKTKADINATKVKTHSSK
UniProt Q00535, whole entry, looked up: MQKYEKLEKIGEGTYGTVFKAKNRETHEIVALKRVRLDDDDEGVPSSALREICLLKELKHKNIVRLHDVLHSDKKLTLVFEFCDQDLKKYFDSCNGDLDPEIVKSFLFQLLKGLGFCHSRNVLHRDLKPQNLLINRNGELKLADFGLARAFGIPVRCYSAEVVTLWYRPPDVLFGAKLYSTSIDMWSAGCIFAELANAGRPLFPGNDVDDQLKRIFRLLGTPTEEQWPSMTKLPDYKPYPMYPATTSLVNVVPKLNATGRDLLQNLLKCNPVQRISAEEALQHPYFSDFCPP
UniProt Q6ZMG9: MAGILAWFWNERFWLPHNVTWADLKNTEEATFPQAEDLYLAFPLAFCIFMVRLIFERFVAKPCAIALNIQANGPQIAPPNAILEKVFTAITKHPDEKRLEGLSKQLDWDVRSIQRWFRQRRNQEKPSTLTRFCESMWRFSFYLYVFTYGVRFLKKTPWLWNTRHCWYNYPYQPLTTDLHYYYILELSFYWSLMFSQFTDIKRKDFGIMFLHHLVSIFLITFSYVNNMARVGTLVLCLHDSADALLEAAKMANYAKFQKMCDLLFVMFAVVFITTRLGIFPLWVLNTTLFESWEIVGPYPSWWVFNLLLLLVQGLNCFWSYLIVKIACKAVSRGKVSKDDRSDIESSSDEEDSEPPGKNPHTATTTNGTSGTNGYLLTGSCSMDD
UniProt P42773: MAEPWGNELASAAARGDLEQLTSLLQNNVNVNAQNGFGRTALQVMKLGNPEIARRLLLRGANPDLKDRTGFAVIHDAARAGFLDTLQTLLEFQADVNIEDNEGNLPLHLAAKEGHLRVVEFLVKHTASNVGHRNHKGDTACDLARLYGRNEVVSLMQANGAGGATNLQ
UniProt Q9UPN4: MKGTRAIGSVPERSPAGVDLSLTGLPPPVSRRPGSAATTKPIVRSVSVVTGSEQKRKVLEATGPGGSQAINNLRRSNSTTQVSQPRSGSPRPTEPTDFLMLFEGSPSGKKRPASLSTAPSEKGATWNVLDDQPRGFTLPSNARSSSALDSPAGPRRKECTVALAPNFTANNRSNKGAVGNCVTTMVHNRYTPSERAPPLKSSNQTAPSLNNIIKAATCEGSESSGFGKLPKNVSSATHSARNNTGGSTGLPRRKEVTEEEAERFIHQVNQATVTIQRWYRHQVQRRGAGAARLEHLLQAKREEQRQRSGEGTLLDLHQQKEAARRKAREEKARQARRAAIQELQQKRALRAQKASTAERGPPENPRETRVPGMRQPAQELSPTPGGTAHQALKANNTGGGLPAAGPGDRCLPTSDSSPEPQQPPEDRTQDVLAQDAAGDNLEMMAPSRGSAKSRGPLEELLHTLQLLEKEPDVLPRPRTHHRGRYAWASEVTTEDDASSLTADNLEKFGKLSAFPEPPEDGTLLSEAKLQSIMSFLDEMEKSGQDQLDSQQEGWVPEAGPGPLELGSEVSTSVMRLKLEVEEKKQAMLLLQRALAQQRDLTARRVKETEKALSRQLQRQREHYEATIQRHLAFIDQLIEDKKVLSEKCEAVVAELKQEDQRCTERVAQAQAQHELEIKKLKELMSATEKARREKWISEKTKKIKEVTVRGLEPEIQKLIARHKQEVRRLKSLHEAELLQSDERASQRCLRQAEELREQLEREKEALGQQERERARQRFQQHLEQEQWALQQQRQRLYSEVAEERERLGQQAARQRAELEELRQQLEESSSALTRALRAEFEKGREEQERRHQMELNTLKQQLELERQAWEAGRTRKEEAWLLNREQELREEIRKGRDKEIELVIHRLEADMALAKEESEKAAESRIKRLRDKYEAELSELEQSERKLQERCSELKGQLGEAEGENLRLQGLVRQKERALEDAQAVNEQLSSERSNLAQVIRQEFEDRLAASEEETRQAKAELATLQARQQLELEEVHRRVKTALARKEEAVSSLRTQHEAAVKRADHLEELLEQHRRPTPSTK
UniProt Q9BUK0: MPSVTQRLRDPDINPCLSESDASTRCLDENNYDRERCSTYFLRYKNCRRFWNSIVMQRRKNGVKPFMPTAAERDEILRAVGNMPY
UniProt P33151: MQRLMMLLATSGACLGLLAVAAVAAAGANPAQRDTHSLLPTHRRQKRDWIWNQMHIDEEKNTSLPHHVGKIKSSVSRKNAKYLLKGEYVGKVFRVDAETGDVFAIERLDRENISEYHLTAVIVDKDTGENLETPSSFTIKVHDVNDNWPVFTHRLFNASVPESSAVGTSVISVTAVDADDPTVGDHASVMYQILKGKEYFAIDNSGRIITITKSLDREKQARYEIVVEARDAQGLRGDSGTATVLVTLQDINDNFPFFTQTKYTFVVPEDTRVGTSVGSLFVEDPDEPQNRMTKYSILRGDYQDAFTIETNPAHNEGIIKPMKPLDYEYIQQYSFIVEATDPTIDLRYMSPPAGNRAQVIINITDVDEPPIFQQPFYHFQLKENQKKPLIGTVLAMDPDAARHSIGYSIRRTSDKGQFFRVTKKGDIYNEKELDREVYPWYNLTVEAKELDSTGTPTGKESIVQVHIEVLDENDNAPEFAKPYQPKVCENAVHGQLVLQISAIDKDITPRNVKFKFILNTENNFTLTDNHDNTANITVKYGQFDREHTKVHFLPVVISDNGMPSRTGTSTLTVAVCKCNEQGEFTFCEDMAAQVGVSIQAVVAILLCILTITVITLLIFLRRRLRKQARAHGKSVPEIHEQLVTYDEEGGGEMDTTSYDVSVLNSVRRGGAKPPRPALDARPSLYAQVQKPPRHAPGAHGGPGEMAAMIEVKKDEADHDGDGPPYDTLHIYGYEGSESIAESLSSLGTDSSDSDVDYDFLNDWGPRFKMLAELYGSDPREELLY
UniProt O14757: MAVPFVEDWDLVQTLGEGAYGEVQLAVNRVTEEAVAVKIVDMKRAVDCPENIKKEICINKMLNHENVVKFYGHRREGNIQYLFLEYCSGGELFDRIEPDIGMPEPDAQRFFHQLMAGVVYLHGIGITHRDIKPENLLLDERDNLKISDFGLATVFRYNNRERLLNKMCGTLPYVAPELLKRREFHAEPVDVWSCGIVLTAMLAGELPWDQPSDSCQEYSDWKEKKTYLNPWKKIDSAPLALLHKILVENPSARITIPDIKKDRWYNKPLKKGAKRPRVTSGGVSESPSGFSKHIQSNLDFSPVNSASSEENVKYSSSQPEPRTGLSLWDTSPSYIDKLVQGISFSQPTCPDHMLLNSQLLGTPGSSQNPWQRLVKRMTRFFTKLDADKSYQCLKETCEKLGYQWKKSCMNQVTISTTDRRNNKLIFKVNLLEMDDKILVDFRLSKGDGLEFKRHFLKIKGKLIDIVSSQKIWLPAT
UniProt Q9NRR3: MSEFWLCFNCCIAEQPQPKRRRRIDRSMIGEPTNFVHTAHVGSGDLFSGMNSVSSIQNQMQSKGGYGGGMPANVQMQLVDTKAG
UniProt Q9BWS9: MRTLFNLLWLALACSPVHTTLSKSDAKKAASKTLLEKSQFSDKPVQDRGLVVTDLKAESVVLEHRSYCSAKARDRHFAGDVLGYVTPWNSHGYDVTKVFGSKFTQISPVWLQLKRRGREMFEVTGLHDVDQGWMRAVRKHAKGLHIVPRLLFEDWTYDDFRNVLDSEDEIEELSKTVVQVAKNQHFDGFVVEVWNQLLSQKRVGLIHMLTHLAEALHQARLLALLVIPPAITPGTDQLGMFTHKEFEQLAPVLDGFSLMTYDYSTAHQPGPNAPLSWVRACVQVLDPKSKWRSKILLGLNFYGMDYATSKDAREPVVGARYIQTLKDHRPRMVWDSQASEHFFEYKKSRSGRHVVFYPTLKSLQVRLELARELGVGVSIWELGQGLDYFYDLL
UniProt Q8WYQ3: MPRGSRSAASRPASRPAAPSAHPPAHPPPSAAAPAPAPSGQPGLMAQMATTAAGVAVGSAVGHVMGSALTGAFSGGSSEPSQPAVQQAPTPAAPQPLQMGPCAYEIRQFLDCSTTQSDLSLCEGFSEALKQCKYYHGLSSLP
UniProt Q9Y6K0: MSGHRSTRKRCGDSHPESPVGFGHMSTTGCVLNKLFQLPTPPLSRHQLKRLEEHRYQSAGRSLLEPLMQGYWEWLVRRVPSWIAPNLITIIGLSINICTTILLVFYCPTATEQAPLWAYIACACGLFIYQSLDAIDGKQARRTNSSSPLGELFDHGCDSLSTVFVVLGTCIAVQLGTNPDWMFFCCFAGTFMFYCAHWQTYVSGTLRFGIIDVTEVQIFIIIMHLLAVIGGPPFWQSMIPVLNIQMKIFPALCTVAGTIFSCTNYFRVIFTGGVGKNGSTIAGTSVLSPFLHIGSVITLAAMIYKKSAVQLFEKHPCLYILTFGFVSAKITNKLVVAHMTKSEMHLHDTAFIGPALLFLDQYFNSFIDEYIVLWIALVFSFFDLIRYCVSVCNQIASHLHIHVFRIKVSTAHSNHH
UniProt Q00536: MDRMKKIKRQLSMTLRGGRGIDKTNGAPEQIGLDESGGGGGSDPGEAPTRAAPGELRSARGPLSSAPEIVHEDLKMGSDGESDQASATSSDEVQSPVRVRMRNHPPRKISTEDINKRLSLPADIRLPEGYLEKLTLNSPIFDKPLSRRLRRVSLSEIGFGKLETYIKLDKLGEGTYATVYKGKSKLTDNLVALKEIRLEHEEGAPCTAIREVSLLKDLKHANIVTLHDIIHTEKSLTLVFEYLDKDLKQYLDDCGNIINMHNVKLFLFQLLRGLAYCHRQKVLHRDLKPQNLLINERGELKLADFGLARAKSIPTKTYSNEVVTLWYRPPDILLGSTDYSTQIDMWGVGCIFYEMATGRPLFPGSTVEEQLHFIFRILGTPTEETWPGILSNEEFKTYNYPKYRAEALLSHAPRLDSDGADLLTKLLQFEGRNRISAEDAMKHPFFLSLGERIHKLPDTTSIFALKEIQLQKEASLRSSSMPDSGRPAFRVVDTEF
UniProt Q71F23: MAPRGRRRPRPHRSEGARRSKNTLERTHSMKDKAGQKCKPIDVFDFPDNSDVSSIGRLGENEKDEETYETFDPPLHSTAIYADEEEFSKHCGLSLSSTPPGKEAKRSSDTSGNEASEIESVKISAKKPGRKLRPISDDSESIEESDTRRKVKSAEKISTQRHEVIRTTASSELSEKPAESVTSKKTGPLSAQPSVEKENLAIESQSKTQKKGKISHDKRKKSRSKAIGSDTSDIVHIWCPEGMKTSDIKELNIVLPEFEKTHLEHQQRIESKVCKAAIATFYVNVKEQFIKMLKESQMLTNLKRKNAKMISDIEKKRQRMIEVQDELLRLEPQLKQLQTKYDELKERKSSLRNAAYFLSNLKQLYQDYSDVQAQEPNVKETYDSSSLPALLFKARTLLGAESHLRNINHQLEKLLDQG
UniProt Q9BWU1: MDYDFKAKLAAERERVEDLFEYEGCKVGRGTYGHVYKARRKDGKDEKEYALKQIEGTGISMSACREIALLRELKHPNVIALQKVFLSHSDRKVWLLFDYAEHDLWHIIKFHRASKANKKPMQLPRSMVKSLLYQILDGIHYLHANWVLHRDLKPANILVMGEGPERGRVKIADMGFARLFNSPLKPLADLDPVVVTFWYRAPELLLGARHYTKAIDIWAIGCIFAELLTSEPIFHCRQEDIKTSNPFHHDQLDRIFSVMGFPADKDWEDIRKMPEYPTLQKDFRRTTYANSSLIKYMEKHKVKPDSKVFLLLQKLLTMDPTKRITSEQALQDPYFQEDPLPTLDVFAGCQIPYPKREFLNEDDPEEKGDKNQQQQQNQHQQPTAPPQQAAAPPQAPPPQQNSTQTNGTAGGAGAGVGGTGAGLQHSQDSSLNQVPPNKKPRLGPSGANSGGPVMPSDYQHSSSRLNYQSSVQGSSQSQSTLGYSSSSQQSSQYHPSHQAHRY
UniProt P50750, whole entry, looked up: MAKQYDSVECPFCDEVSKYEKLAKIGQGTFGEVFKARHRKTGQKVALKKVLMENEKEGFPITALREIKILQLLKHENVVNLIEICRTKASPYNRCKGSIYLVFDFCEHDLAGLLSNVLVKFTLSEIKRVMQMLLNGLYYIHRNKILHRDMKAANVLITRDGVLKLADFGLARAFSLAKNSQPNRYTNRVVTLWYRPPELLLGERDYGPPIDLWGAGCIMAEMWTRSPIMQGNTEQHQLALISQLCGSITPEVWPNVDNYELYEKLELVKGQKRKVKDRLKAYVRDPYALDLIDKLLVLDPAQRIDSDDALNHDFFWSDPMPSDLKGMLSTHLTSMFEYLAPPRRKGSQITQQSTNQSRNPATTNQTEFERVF

[1] = compound: C/C(=N\NC(=O)C1=CC(=CC=C1)S(=O)(=O)N2CCOCC2)/C3=C(C=CC(=C3)Cl)O
Outline: as §1

[2] = compound: C1=CC(=CC=C1C2=NC3=C(N2)C=C(C=C3)C(=O)N)OC4=CC=C(C=C4)Cl
Outline: as §1

[3] = compound: C1=CC2=C(C=CC(=C2)/C=C\3/C(=O)NC(=NCC4=CC=CS4)S3)N=C1
Outline: as §1

[4] = compound: C1=CC=C(C=C1)C2=NC(=C(N2)C3=CC=NC=C3)C4=CC(=C(C=C4)Cl)O
Outline: as §1

[5] = compound: C1=CC=C2C(=C1)C3=NNC4=CC=CC(=C43)C2=O
Outline: as §1

[6] = compound: C1CCN(C1)C(=O)NC2=CC=CC(=C2)NC3=NC=C(C(=N3)NCCC4=CN=CN4)Br
Outline: as §1

[7] = compound: C1CN(CCC1(CC2=CC=C(C=C2)Cl)N)C3=NC=NC4=C3C=CN4
Outline: as §1

[8] = compound: C1=CC(=C(C=C1Cl)C2=NC3=NC=CN=C3C(=N2)NC4=CC=NC=C4)F
Outline: as §1

[9] = compound: C1=CC2=NC=CN=C2C=C1/C=C/3\C(=O)NC(=O)S3
Outline: as §1

Target | log2 fold change (erlotinib) | log2 fold change [1] | log2 fold change [2] | log2 fold change [3] | log2 fold change [4] | log2 fold change [5] | log2 fold change [6] | log2 fold change [7] | log2 fold change [8] | log2 fold change [9]
CDR2L (UniProt Q86X02) | inactive: 0.072 | inactive: 0.068 | inactive: -0.044 | inactive: 0.055 | inactive: 0.008 | inactive: -0.079 | inactive: -0.173 | inactive: -0.145 |  | 
CDK2 (UniProt P24941) | inactive: -0.006 | inactive: -0.016 | inactive: -0.018 |  | inactive: -0.01 | inactive: -0.032 | inactive: -0.028 | inactive: 0.034 | inactive: 0.023 | inactive: 0.004
CEND1 (UniProt Q8N111) | inactive: -0.01 | inactive: -0.162 | inactive: 0.289 | inactive: -0.039 | inactive: -0.013 | inactive: 0.176 | inactive: -0.101 | inactive: -0.017 |  | 
CDK5 (UniProt Q00535) | inactive: -0.02 | inactive: -0.009 | inactive: -0.008 | inactive: -0.014 | inactive: -0.02 |  | inactive: 0.017 | inactive: 0.038 | inactive: 0.041 | inactive: 0.052
CERS6 isoform 2 (UniProt Q6ZMG9) | inactive: -0.018 | inactive: 0.042 | inactive: 0.015 | inactive: 0.039 |  | inactive: -0.075 | inactive: 0.019 | inactive: 0.029 | inactive: -0.03 | inactive: 0.011
CENPE (UniProt Q02224) | inactive: 0.268 | inactive: 0.525 | inactive: -0.096 | active: -0.875 | inactive: 0.072 | inactive: 0.444 | inactive: 0.011 | inactive: 0.032 |  | inactive: 0.098
CDKN2C (UniProt P42773) | inactive: 0.1 | inactive: 0.08 | inactive: 0.029 | inactive: 0.187 | inactive: 0.097 | inactive: 0.035 | inactive: -0.06 | inactive: -0.021 |  | inactive: 0.135
CEBPZOS (UniProt A8MTT3) | inactive: -0.017 | inactive: 0.084 | inactive: 0.015 | inactive: 0.039 | inactive: 0.03 | inactive: 0.057 | inactive: 0.05 | inactive: -0.03 |  | inactive: 0.074
CHMP2B (UniProt Q9UQN3) | inactive: -0.004 | inactive: 0.007 | inactive: 0.024 | inactive: -0.014 | inactive: 0.026 | inactive: -0.018 | inactive: -0.026 | inactive: -0.001 | inactive: 0.078 | inactive: 0.028
CFAP97 (UniProt Q9P2B7) | inactive: -0.088 | inactive: 0.027 | inactive: -0.012 | inactive: -0.002 | inactive: 0.187 | inactive: 0.017 | inactive: 0.056 | inactive: 0.046 | inactive: -0.183 | inactive: -0.363
CEP131 (UniProt Q9UPN4) | inactive: 0.005 | inactive: -0.08 | inactive: 0.045 | inactive: 0.029 |  | inactive: -0.041 | inactive: -0.004 | inactive: 0.023 | inactive: -0.235 | 
CHCHD7 isoform 4 (UniProt Q9BUK0) | inactive: 0.094 | inactive: -0.013 | inactive: -0.029 | inactive: -0.013 | inactive: -0.012 | inactive: -0.002 | inactive: -0.011 | inactive: 0.01 |  | inactive: 0.007
CDH5 (UniProt P33151) | inactive: -0.227 |  | inactive: -0.052 |  |  |  |  |  | inactive: 0.086 | 
CHEK1 (UniProt O14757) | inactive: 0.03 | inactive: 0.047 | inactive: 0.012 | inactive: 0.246 | inactive: -0.026 | inactive: -0.099 | active: -0.303 | inactive: -0.089 | inactive: 0.029 | inactive: 0
CDC42SE2 (UniProt Q9NRR3) | inactive: -0.175 | inactive: 0.319 | inactive: 0.007 | inactive: -0.024 |  | inactive: -0.054 | inactive: -0.093 | inactive: 0.146 | inactive: 0.068 | inactive: 0.021
CHID1 (UniProt Q9BWS9) | inactive: -0.092 | inactive: -0.042 | inactive: -0.014 | inactive: -0.003 | inactive: 0.024 | inactive: -0.003 | inactive: 0.001 | inactive: -0.065 | inactive: -0.017 | inactive: 0.005
CHCHD10 (UniProt Q8WYQ3) | inactive: -0.151 |  | inactive: -0.087 |  | inactive: 0.19 |  |  |  | inactive: -0.033 | inactive: 0.05
CDYL (UniProt Q9Y232) | inactive: 0.003 | inactive: 0.025 | inactive: 0.006 | inactive: 0.004 | inactive: 0.003 | inactive: -0.047 | inactive: -0.001 | inactive: 0.057 | inactive: -0.032 | inactive: 0.087
CEPT1 (UniProt Q9Y6K0) | inactive: 0.099 | inactive: 0.034 | inactive: 0.107 | inactive: 0.037 | inactive: 0.011 | inactive: 0.071 | inactive: 0.007 | inactive: -0.074 | inactive: 0.016 | inactive: 0.047
CEP97 isoform 2 (UniProt Q8IW35) | inactive: 0.046 | inactive: -0.043 | inactive: 0.008 | inactive: 0.059 | inactive: 0.028 | inactive: -0.01 | inactive: 0.072 | inactive: 0.031 | inactive: -0.059 | 
CDK16 isoform 2 (UniProt Q00536) | inactive: -0.072 | inactive: -0.025 | inactive: -0.07 | inactive: 0.043 | inactive: -0.024 | inactive: 0.121 | inactive: 0.139 | inactive: -0.029 | inactive: -0.023 | inactive: -0.016
CEP192 (UniProt Q8TEP8) | inactive: 0.047 | inactive: -0.16 | inactive: -0.13 | inactive: 0.298 |  | inactive: -0.096 | inactive: 0.231 | inactive: -0.22 | inactive: -0.11 | inactive: -0.071
CENPU (UniProt Q71F23) | inactive: -0.142 | inactive: -0.502 | inactive: -0.047 | inactive: -0.202 |  | inactive: -0.381 | inactive: 0.01 | inactive: 0 | inactive: -0.334 | 
CDK19 (UniProt Q9BWU1) | inactive: -0.2 | inactive: -0.116 | inactive: 0.268 | inactive: 0.111 | inactive: -0.167 | inactive: 0.099 | inactive: 0.003 | inactive: 0.021 | inactive: 0.053 | 
CENPS (UniProt Q8N2Z9) | inactive: -0.103 | inactive: 0.023 | inactive: 0.138 | inactive: -0.07 |  | inactive: 0.034 | inactive: -0.025 | inactive: 0.056 | inactive: 0.038 | inactive: 0.04
CHM (UniProt P24386) | inactive: 0.045 | inactive: 0.052 | inactive: 0.023 | inactive: -0.161 | inactive: -0.074 | inactive: -0.153 | inactive: 0.006 | inactive: 0.023 | inactive: -0.013 | 
CDK9 isoform 2 (UniProt P50750) | inactive: 0.043 | inactive: -0.005 | inactive: 0.024 | inactive: -0.084 | inactive: 0.059 | inactive: -0.076 | inactive: -0.001 | inactive: -0.059 | inactive: -0.174 | inactive: 0.05

Six entries from above, with tabs.
Target	log2 fold change (erlotinib)	log2 fold change [1]	log2 fold change [2]	log2 fold change [3]	log2 fold change [4]	log2 fold change [5]	log2 fold change [6]	log2 fold change [7]	log2 fold change [8]	log2 fold change [9]
CDK16 isoform 2 (UniProt Q00536)	inactive: -0.072	inactive: -0.025	inactive: -0.07	inactive: 0.043	inactive: -0.024	inactive: 0.121	inactive: 0.139	inactive: -0.029	inactive: -0.023	inactive: -0.016
CEP192 (UniProt Q8TEP8)	inactive: 0.047	inactive: -0.16	inactive: -0.13	inactive: 0.298		inactive: -0.096	inactive: 0.231	inactive: -0.22	inactive: -0.11	inactive: -0.071
CENPU (UniProt Q71F23)	inactive: -0.142	inactive: -0.502	inactive: -0.047	inactive: -0.202		inactive: -0.381	inactive: 0.01	inactive: 0	inactive: -0.334	
CDK19 (UniProt Q9BWU1)	inactive: -0.2	inactive: -0.116	inactive: 0.268	inactive: 0.111	inactive: -0.167	inactive: 0.099	inactive: 0.003	inactive: 0.021	inactive: 0.053	
CENPS (UniProt Q8N2Z9)	inactive: -0.103	inactive: 0.023	inactive: 0.138	inactive: -0.07		inactive: 0.034	inactive: -0.025	inactive: 0.056	inactive: 0.038	inactive: 0.04
CHM (UniProt P24386)	inactive: 0.045	inactive: 0.052	inactive: 0.023	inactive: -0.161	inactive: -0.074	inactive: -0.153	inactive: 0.006	inactive: 0.023	inactive: -0.013	

Reference: the supplement of paper PMC10849652
